# Experimental data: publication PMC9230529
# Chains of the proteins cited; added tags and fusions are not shown. Residues count along the entry.
# UniProt P08637, residues 17-254: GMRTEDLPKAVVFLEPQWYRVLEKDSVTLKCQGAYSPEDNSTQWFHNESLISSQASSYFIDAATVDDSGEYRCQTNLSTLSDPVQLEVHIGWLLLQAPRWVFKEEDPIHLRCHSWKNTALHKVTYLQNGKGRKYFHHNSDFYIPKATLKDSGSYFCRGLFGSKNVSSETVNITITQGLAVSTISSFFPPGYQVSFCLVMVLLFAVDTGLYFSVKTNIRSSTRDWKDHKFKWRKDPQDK
# UniProt P0DTC8, residues 16-121: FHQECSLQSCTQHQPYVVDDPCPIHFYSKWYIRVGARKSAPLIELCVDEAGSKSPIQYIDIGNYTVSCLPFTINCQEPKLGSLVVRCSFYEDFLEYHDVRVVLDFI
# No constants are given. Whether binding was seen depends on the method and setting. Binding seen in cells or lysates may run through a third protein. Some results given as binding are weak or reduced against the parent protein; the word gives no strength.
# Target: Flag-tagged CD16a (human) (UniProt P08637)
# Assay: co-IP
substance,measurement,value
StrepII-tagged ORF8 (from UniProt P0DTC8 16-121),binding,binds
